Data source: PubChem BioAssay AID493246 (Drosophila RNAi Screening Center, 2011)
The deposit covers about 21,000 reagents; below is a random part of those that have a named target and a result. Of all reagents, 429 (2%) got an active call. 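Values are raw and not normalised between plates; calls rest on per-plate z-scores that were not deposited.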 Names joined by + are all predicted targets of the reagent. Not stated in the record: the amount of reagent, the time to read-out.

Purpose: 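Identify essential fly genes by loss of cell viability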 (primary screen)
System: Drosophila Kc and S2R+ cells
Reagent: long dsRNA against Drosophila genes
Measurement: 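Cell number per well after knock-down, printed as raw plate values; calls were based on per-plate z-scores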
Reading the numbers: Kc cell number and S2R+ cell number: higher = more cells remaining
Call rule: 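Active when the per-plate z-score of cell number is 3 or more in the direction of fewer cells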

| target gene | dsRNA | Kc cell number, rep 1 | Kc cell number, rep 2 | S2R+ cell number, rep 1 | S2R+ cell number, rep 2 | outcome |
| --- | --- | --- | --- | --- | --- | --- |
| morgue (modifier of rpr and grim, ubiquitously expressed) | DRSC00264 | 1.24e6 | 1.26e6 | 8.84e5 | 9.07e5 | inactive |
| CG7483 | DRSC16249 | 1.62e6 | 1.79e6 | 1.23e6 | 1.31e6 | inactive |
| elB (elbow B) | DRSC01379 | 1.43e6 | 1.49e6 | 9.42e5 | 1.11e6 | inactive |
| elB (elbow B) | DRSC03527 | 1.68e6 | 1.68e6 | 1.31e6 | 1.42e6 | inactive |
| Septin1 (Septin 1) | DRSC20573 | 1.49e6 | 1.48e6 | 9.98e5 | 1.14e6 | inactive |
| CG14321 | DRSC14800 | 1.45e6 | 1.44e6 | 9.69e5 | 1.05e6 | inactive |
| ckd (cracked) | DRSC08418 | 1.48e6 | 1.32e6 | 1.04e6 | 1.35e6 | inactive |
| CG18428 | DRSC15326 | 1.55e6 | 1.69e6 | 9.95e5 | 1.11e6 | inactive |
| CG14984 | DRSC08442 | 1.45e6 | 1.30e6 | 9.68e5 | 1.21e6 | inactive |
| viaf (viral IAP-associated factor) | DRSC10326 | 1.39e6 | 1.42e6 | 1.28e6 | 1.20e6 | inactive |
| IM33 (Immune induced molecule 33) | DRSC00476 | 1.57e6 | 1.41e6 | 1.15e6 | 1.34e6 | inactive |
| CG14013 | DRSC02344 | 1.51e6 | 1.23e6 | 9.50e5 | 1.02e6 | inactive |
| CG6420 | DRSC16035 | 1.52e6 | 1.58e6 | 9.66e5 | 1.10e6 | inactive |
| eIF3d1 (eukaryotic translation initiation factor 3 subunit d1) | DRSC16938 | 1.14e6 | 1.19e6 | 7.79e5 | 9.25e5 | inactive |
| La (La autoantigen-like) | DRSC03358 | 1.57e6 | 1.73e6 | 1.36e6 | 3.40e5 | inactive |
| CG12935 + Nop10 | DRSC07025 | 1.73e6 | 1.84e6 | 1.28e6 | 1.41e6 | inactive |
| Pp4-19C (Protein phosphatase 19C) | DRSC20559 | 1.33e6 | 1.36e6 | 8.23e5 | 9.57e5 | inactive |
| Pp4-19C (Protein phosphatase 19C) | DRSC21251 | 1.43e6 | 1.43e6 | 8.72e5 | 1.00e6 | inactive |
| CG14626 | DRSC18631 | 1.48e6 | 1.48e6 | 1.09e6 | 1.25e6 | inactive |
| squ (squash) | DRSC01549 | 1.41e6 | 1.47e6 | 9.47e5 | 1.13e6 | inactive |
| CG15337 | DRSC18020 | 1.59e6 | 1.59e6 | 1.01e6 | 1.16e6 | inactive |
| bic (bicaudal) | DRSC07584 | 1.44e6 | 1.47e6 | 1.03e6 | 1.15e6 | inactive |
| ND-B14.5A (NADH dehydrogenase (ubiquinone) B14.5 A subunit) | DRSC18500 | 1.59e6 | 1.56e6 | 1.07e6 | 1.25e6 | inactive |
| CD98hc (CD98 heavy chain) | DRSC15453 | 1.52e6 | 1.57e6 | 1.27e6 | 1.34e6 | inactive |
| Rpn6 (Regulatory particle non-ATPase 6) | DRSC07541 | 7.57e5 | 9.19e5 | 6.05e5 | 6.50e5 | inactive |
| eIF4E1 (eukaryotic translation initiation factor 4E1) | DRSC11342 | 1.07e6 | 1.12e6 | 1.04e6 | 1.04e6 | inactive |
| IntS10 (Integrator 10) | DRSC08173 | 1.72e6 | 1.63e6 | 1.09e6 | 1.47e6 | inactive |
| CG17841 | DRSC17737 | 6.90e5 | – | 9.79e5 | – | inactive |
| CG4733 | DRSC15634 | 1.17e6 | 1.27e6 | 1.12e6 | 1.20e6 | inactive |
| Det (Deterin) | DRSC14489 | 1.27e6 | 1.37e6 | 1.10e6 | 1.24e6 | inactive |
| CG11588 | DRSC09145 | 1.34e6 | 1.42e6 | 1.03e6 | 1.21e6 | inactive |
| CG11588 | DRSC09846 | 1.50e6 | 1.69e6 | 1.36e6 | 1.54e6 | inactive |
| hep (hemipterous) | DRSC19839 | 1.49e6 | 1.50e6 | 1.04e6 | 1.12e6 | inactive |
| hep (hemipterous) | DRSC20337 | 1.66e6 | 1.58e6 | 1.04e6 | 1.10e6 | inactive |
| mthl3 (methuselah-like 3) | DRSC06997 | 1.30e6 | 1.39e6 | 1.07e6 | 1.13e6 | inactive |
| CG15099 | DRSC06528 | 1.25e6 | 1.32e6 | 1.03e6 | 1.10e6 | inactive |
| CG13891 | DRSC08361 | 1.23e6 | 1.26e6 | 1.06e6 | 1.28e6 | inactive |
| pit (pitchoune) | DRSC17025 | 1.37e6 | 1.34e6 | 9.65e5 | 1.02e6 | inactive |
| gsb-n (gooseberry-neuro) | DRSC04021 | 1.59e6 | 1.71e6 | 9.61e5 | 1.11e6 | inactive |
| gsb-n (gooseberry-neuro) | DRSC04693 | 1.55e6 | 1.58e6 | 1.24e6 | 1.45e6 | inactive |

Sorted by “Kc cell number, rep 1” (lowest first): 2 of the entries above.
| target gene | dsRNA | Kc cell number, rep 1 | Kc cell number, rep 2 | S2R+ cell number, rep 1 | S2R+ cell number, rep 2 | outcome |
| --- | --- | --- | --- | --- | --- | --- |
| Pp4-19C (Protein phosphatase 19C) | DRSC21251 | 1.43e6 | 1.43e6 | 8.72e5 | 1.00e6 | inactive |
| CG14626 | DRSC18631 | 1.48e6 | 1.48e6 | 1.09e6 | 1.25e6 | inactive |
